From US7838676B2, “Beta-secretase modulators and methods of use” (Amgen Inc., priority 2005, dated 2010)
pIC50: −log10 of the molar value. Some entries share one result that the patent states for a list of compounds. At least one structure is not confirmed: it was looked up by name or label, or the drawing left a doubt.

Sequences of proteins named here, by UniProt entry; tags and fusion partners are left off. Residues count along the entry.
UniProt P56817, 46-501, species assumed: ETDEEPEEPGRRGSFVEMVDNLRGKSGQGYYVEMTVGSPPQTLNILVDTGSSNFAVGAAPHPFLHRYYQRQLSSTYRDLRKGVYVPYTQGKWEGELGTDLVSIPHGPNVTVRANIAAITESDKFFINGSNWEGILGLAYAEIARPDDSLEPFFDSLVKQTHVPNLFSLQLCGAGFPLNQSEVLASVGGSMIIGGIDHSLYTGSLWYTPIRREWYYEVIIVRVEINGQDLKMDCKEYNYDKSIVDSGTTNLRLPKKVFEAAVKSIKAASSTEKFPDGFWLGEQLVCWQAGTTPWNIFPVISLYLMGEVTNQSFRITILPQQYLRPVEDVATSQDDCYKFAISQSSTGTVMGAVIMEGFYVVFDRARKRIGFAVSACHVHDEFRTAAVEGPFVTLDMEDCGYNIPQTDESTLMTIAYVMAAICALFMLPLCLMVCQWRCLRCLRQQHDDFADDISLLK

Biological target: BACE (Homo sapiens, UniProt P56817)
Test: In Vitro Enzymatic BACE FRET (Fluorescence Resonance Energy Transfer) Assay
Type: biochemical
Details: enzyme 0.2 nM, FRET substrate 50 nM, pH 4.2

| Compound | pIC50 |
| --- | --- |
| CCc1ccc2c(c1)C(NCC(O)C(Cc1ccccc1)NC(=O)c1cc(C3CCCC3)cc(C3CCCCN3S(C)(=O)=O)c1)CC1(CCCC1)O2 [Example 5, 3-cyclopentyl-N-((2S,3R)-4-((S)-6-ethy-2,2-spirocyclopentylchroman-4-ylamino)-3-hydroxy-1-phenylbutan-2-yl)-5-(1-(methylsulfonyl)piperidin-2-yl)benzamide] | ≥ 5.30 |
| CCc1ccc2c(c1)C(NCC(O)C(Cc1ccccc1)NC(=O)c1cc(C3CCCC3)cc(C3CCCN(C(C)=O)C3)c1)CC1(CCCC1)O2 [Example 17, 3-(1-acetylpiperidin-3-yl)-5-cyclopentyl-N-((2S,3R)-4-((S)-6-ethyl-2,2-spirocyclopentylchroman-4-ylamino)-3-hydroxy-1-phenylbutan-2-yl)benzamide] | ≥ 5.30 |
| CCc1ccc2c(c1)[C@@H](NC[C@@H](O)[C@H](Cc1ccccc1)NC(=O)c1cc(C)nc(N3CCc4ccccc4C3)c1)CC1(CCCC1)O2 [Example 188, 2-(3,4-dihydro-2(1H)-isoquinolinyl)-N-((1S,2R)-3-(((4S)-6-ethyl-3,4-dihydrospiro[chromene-2,1′-cyclopentan]-4-yl)amino)-2-hydroxy-1-(phenylmethyl)propyl)-6-methyl-4-pyridinecarboxamide] | ≥ 5.30 |
| CCc1ccc2c(c1)[C@@H](NC[C@@H](O)[C@H](Cc1ccccc1)NC(=O)c1ccc(S(=O)(=O)C(C)(C)C)s1)CC1(CCC1)O2 [Example 203, 5-((1,1-dimethylethyl)sulfonyl)-N-((1S,2R)-3-(((4S)-6-ethyl-3,4-dihydrospiro[chromene-2,1′-cyclobutan]-4-yl)amino)-2-hydroxy-1-(phenylmethyl)propyl)-2-thiophenecarboxamide] | ≥ 5.30 |
| CCc1ccc2c(c1)[C@@H](NC[C@@H](O)[C@H](Cc1ccccc1)NC(=O)c1cnccn1)CC1(CCC1)O2 [Example 66, N-((1S,2R)-3-(((4S)-6-ethyl-3,4-dihydrospiro[chromene-2,1′-cyclobutan]-4-yl)amino)-2-hydroxy-1-(phenylmethyl)propyl)-2-pyrazinecarboxamide] | ≥ 5.30 |
| CCc1ccc2c(c1)C(NCC(O)C(Cc1ccccc1)NC(=O)c1cccc(C3CCCN3)c1)CC1(CCCC1)O2 [Example 34, N-((2S,3R)-4-((S)-6-ethyl-2,2-spirocyclopentylchroman-4-ylamino)-3-hydroxy-1-phenylbutan-2-yl)-3-(pyrrolidin-2-yl)benzamide] | ≥ 5.30 |
| CCc1ccc2c(c1)[C@@H](NC[C@@H](O)[C@H](Cc1ccccc1)NC(=O)c1cc(-c3cccs3)cc(C3CCCC3)c1)CC1(CCCC1)O2 [Example 9, 3-cyclopentyl-N-((2S,3R)-4-((S)-6-ethyl-2,2-spirocyclopentylchroman-4-ylamino)-3-hydroxy-1-phenylbutan-2-yl)-5-(thiophen-2-yl) benzamide] | ≥ 5.30 |
| CCc1ccc2c(c1)[C@@H](NC[C@@H](O)[C@H](Cc1ccccc1)NC(=O)c1cc(C3CCCC3)cc(-n3cccc3)c1)CC1(CCCC1)O2 [Example 21, 3-cyclopentyl-N-((2S,3R)-4-((S)-6-ethyl-2,2-spirocyclopentylchroman-4-ylamino)-3-hydroxy-1-phenylbutan-2-yl)-5-(1H-pyrrol-1-yl) benzamide] | ≥ 5.30 |
| CCc1ccc2c(c1)[C@@H](NC[C@@H](O)[C@H](Cc1ccccc1)NC(=O)c1cc3cccc(OC)c3o1)CC1(CCCC1)O2 [Example 134, N-((2S,3R)-4-((S)-6-ethyl-2,2-spirocyclopentylchroman-4-ylamino)-3-hydroxy-1-phenylbutan-2-yl)-7-methoxybenzofuran-2-carboxamide] | ≥ 5.30 |
| CCc1ccc2c(c1)[C@@H](NC[C@@H](O)[C@H](Cc1ccccc1)NC(=O)c1cc([C@@H]3CCN(CC)C3)cc([C@@H]3CCCCN3C(C)=O)c1)CC1(CCCC1)O2 [Example 15, 3-((2S)-1-acetyl-2-piperidinyl)-N-((1S,2R)-3-(((4S)-6-ethyl-3,4-dihydrospiro[chromene-2,1′-cyclopentan]-4-yl)amino)-2-hydroxy-1-(phenylmethyl)propyl)-5-((3S)-1-ethyl-3-pyrrolidinyl)benzamide] | ≥ 5.30 |
| O=C(N[C@@H](Cc1ccccc1)[C@H](O)CN[C@H]1CC2(CCC2)Oc2ccccc21)c1ccc(F)c(N2CCCC2=O)c1 [Example 89, N-((2S,3R)-4-((S)-2,2-spirocyclobutylchroman-4-ylamino)-3-hydroxy-1-phenylbutan-2-yl)-4-fluoro-3-(2-oxopyrrolidin-1-yl) benzamide] | ≥ 5.30 |
| CCc1ccc2c(c1)[C@@H](NC[C@@H](O)[C@H](Cc1ccccc1)NC(=O)c1cc(CC(C)C)nc3ccccc13)CC1(CCCC1)O2 [Example 46, N-((2S,3R)-4-((S)-6-ethyl-2,2-spirocyclopentylchroman-4-ylamino)-3-hydroxy-1-phenylbutan-2-yl)-2-isobutylquinoline-4-carboxamide] | ≥ 5.30 |
| CC(C)(C)Cc1cnc2c(c1)[C@@H](NC[C@H](O)[C@H](Cc1ccccc1)NC(=O)c1cccc(N3CCCC3=O)c1F)CC1(CCC1)O2 [Example 69, N-((1S,2S)-3-(((4′S)-6′-(2,2-dimethylpropyl)-3′,4′-dihydrospiro[cyclobutane-1,2′-pyrano[2,3-b]pyridin]-4′-yl)amino)-2-hydroxy-1-(phenylmethyl)propyl)-2-fluoro-3-(2-oxo-1-pyrrolidinyl)benzamide] | ≥ 5.30 |
| CC(C)(C)Cc1cnc2c(c1)[C@@H](NC[C@@H](O)[C@H](Cc1ccccc1)NC(=O)c1cc(C(F)(F)F)ccc1F)CC1(CCC1)O2 [Example 100, N-((1S,2R)-3-(((4′S)-6′-(2,2-dimethylpropyl)-3′,4′-dihydrospiro[cyclobutane-1,2′-pyrano[2,3-b]pyridin]-4′-yl)amino)-2-hydroxy-1-(phenylmethyl)propyl)-2-fluoro-5-(trifluoromethyl)benzamide] | ≥ 5.30 |
| CC(C)(C)Cc1cnc2c(c1)[C@@H](NC[C@@H](O)[C@H](Cc1cccc(C#N)c1)NC(=O)c1nc(Cl)ccc1F)CC1(CCC1)O2 [Example 123, 6-chloro-N-((1S,2R)-1-((3-cyanophenyl)methyl)-3-(((4′S)-6′-(2,2-dimethylpropyl)-3′,4′-dihydrospiro[cyclobutane-1,2′-pyrano[2,3-b]pyridin]-4′-yl)amino)-2-hydroxypropyl)-3-fluoro-2-pyridinecarboxamide] | ≥ 5.30 |
| CCc1ccc2c(c1)[C@@H](NC[C@@H](O)[C@H](Cc1ccccc1)NC(=O)c1cc(C3CCCC3)nc(-n3cccc3C#N)c1)CC1(CCCC1)O2 [Example 154, 2-(2-cyano-1H-pyrrol-1-yl)-6-cyclopentyl-N-((2S,3R)-4-((S)-6-ethyl-2,2-spirocyclopentyl-chroman-4-ylamino)-3-hydroxy-1-phenylbutan-2-yl)isonicotinamide] | ≥ 5.30 |
| CCc1ccc2c(c1)[C@@H](NC[C@@H](O)[C@H](Cc1ccccc1)NC(=O)c1ccnc(N3CCOCC3)c1)CC1(CCCC1)O2 [Example 169, N-((2S,3R)-4-((S)-6-ethyl-2,2-spirocyclopentylchroman-4-ylamino)-3-hydroxy-1-phenylbutan-2-yl)-2-morpholinoisonicotinamide] | ≥ 5.30 |
| O=C(N[C@@H](Cc1ccccc1)[C@H](O)CN[C@H]1CC2(CCC2)Oc2ccc(Br)cc21)c1ccno1 [Example 162, N-((1S,2R)-3-(((4S)-6-bromo-3,4-dihydrospiro[chromene-2,1′-cyclobutan]-4-yl)amino)-2-hydroxy-1-(phenylmethyl)propyl)-5-isoxazolecarboxamide] | ≥ 5.30 |
| CC(C)(C)Cc1cnc2c(c1)[C@@H](NC[C@H](O)[C@H](Cc1ccccc1)NC(=O)c1ccc(F)c(N3CCCC3=O)c1)CC1(CCC1)O2 [Example 71, N-((1S,2S)-3-(((4′S)-6′-(2,2-dimethylpropyl)-3′,4′-dihydrospiro[cyclobutane-1,2′-pyrano[2,3-b]pyridin]-4′-yl)amino)-2-hydroxy-1-(phenylmethyl)propyl)-4-fluoro-3-(2-oxo-1-pyrrolidinyl)benzamide] | ≥ 5.30 |
| CCc1ccc2c(c1)[C@@H](NC[C@@H](O)[C@H](Cc1ccccc1)NC(=O)c1ccc(-c3cccc(C(F)(F)F)c3)o1)CC1(CCCC1)O2 [Example 129, N-((2S,3R)-4-((S)-6-ethyl-2,2-spirocyclopentylchroman-4-ylamino)-3-hydroxy-1-phenylbutan-2-yl)-5-(3-(trifluoromethyl)phenyl)furan-2-carboxamide] | ≥ 5.30 |
| CCc1cc2c(cc1F)OC1(CCC1)C[C@@H]2NC[C@@H](O)[C@H](Cc1ccccc1)NC(=O)c1ccno1 [Example 65, N-((1S,2R)-3-(((4S)-6-ethyl-7-fluoro-3,4-dihydrospiro[chromene-2,1′-cyclobutan]-4-yl)amino)-2-hydroxy-1-(phenylmethyl)propyl)-5-isoxazolecarboxamide] | ≥ 5.30 |
| CC1CCCN(c2cc(C(=O)NC(Cc3ccccc3)C(O)CNC3CC4(CCCC4)Oc4c(F)cc(F)cc43)ccn2)C1 (racemic) [Example 105, N-((2S,3R)-4-((S)-6,8-difluoro-3,4-dihydrospiro[chromene-2,1′-cyclopentan]-4-yl)amino)-3-hydroxy-1-phenylbutan-2-yl)-2-((+/−)-3-methylpiperidin-1-yl)isonicotinamide] | ≥ 5.30 |
| CCc1ccc2c(c1)[C@@H](NC[C@@H](O)[C@H](Cc1ccccc1)NC(=O)c1ccnc(-c3c(F)cccc3F)c1)CC1(CCC1)O2 [Example 52, 2-(2,6-difluorophenyl)-N-((1S,2R)-3-(((4S)-6-ethyl-3,4-dihydrospiro[chromene-2,1′-cyclobutan]-4-yl)amino)-2-hydroxy-1-(phenylmethyl)propyl)-4-pyridinecarboxamide] | ≥ 5.30 |
| O=C(N[C@@H](Cc1ccccc1)[C@H](O)CN[C@H]1CC2(CCC2)Oc2cc(CN3CCCCC3)c(Cl)cc21)c1nc(Cl)ccc1F [Example 124, 6-chloro-N-((1S,2R)-3-(((4S)-6-chloro-7-(1-piperidinylmethyl)-3,4-dihydrospiro[chromene-2,1′-cyclobutan]-4-yl)amino)-2-hydroxy-1-(phenylmethyl)propyl)-3-fluoro-2-pyridinecarboxamide] | ≥ 5.30 |
| CCc1ccc2c(c1)[C@@H](NC[C@@H](O)[C@H](Cc1ccccc1)NC(=O)c1ccc(F)cc1)CC1(CCC1)O2 [Example 49, N-((2S,3R)-4-((S)-6-ethyl-2,2-spirocyclobutylchroman-4-ylamino)-3-hydroxy-1-phenylbutan-2-yl)-4-fluorobenzamide] | ≥ 5.30 |
